Among the data in ChEMBL document CHEMBL2412957, “Synthesis and SAR of 4-aminocyclopentapyrrolidines as orally active N-type calcium channel inhibitors for inflammatory and neuropathic pain” (Bioorg Med Chem Lett, 2013) are solubility values, retold here.

Converted amounts (≈) assume the structure as drawn.

By solubility is commonly meant the dissolved amount per volume that the medium holds. A low value points to little dissolved substance.

The nature of the data set: Solubility of the compound by chemiluminescent nitrogen detection method.

`CC(C)N[C@@H](CC(C)(C)C)C(=O)N[C@H]1CC[C@@H]2CN(S(=O)(=O)c3ccc(C(F)(F)F)cc3)C[C@@H]21` registered a solubility of 21 µM (≈ 10.6 µg/mL).
